We go through one sequence from paper PMC9860313 (2022).

This data set relates to RNA-binding Fab (antibody antigen-binding fragment, ref 25 + binds AAACA pentaloop). Put plainly: X-ray crystallography. Conditions: recombinant protein.

For at least one entry, the source does not settle the construct or the ends of the probe.

Take GGCGAUACCAGCGAAACACGCCCUUGGCAGCGUC: the binding result (TAL2 soaked (1.1 mM), 2.46 A) is listed as “binds” and the binding result (ligand-free, 1.81 A) was “binds”.
